Source: article PMC11233569
No constants are given. Whether binding was seen depends on the method and setting. In cells and extracts the contact can be indirect. Here binding means that the protein was enriched with, or labelled near, the bait; the list need not be complete.

Amino acid sequences for entries named in this document (tags omitted).
UniProt Q15629: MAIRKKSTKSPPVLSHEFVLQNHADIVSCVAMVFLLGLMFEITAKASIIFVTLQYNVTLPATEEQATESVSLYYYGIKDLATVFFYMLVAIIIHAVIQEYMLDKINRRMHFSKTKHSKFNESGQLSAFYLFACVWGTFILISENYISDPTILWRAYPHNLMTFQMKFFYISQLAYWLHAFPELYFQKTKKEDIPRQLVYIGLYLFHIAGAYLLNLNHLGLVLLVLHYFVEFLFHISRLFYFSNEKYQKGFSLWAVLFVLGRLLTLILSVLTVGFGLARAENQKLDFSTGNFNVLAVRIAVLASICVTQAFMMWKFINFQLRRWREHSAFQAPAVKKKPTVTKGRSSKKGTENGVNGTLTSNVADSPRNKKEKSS

Molecular target: T1, endogenous TREX1 (three-prime repair exonuclease 1) (human (endogenous in NP cells)) (UniProt Q9NSU2)
T1 sequence: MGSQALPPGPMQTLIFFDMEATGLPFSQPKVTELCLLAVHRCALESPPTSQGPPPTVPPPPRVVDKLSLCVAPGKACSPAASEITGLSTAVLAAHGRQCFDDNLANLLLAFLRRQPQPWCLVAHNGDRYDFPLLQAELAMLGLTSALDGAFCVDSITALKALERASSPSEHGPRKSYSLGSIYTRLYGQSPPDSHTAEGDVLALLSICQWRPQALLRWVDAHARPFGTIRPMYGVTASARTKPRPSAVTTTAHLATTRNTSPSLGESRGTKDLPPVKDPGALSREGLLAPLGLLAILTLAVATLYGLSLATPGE
Assay: affinity purification with mass spectrometry; IP of endogenous TREX1 with an anti-TREX1 antibody or control antibody from lysates of normal (passage 2) and senescent (passage 8) human NP cells, NP-40 lysis; eluate separated by SDS-PAGE, trypsin digest, LC-MS (Orbitrap Fusion Lumos)

Substance: endogenous translocating chain-associating membrane protein 1 (TRAM1) (from UniProt Q15629 1-374)
- binding: binds
